Data from the supplement of paper PMC12823440, “Inhibitors supercharge kinase turnover through native proteolytic circuits” (Nature, 2025).
Structures can show the parent of a compound that is named as a salt. The list shows a part of the results. Hit calls seldom repeat between salt and free forms of one compound.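 Kinases were expressed as nanoluciferase fusions in K562 cells and luminescence was read every 4 h between 2 and 18 h as percent of control, DMSO set to 100% and a positive control to 0%. A time point counts as decreased when the signal drops significantly (2 sigma). The hit call is the authors' own, does not follow from the count of time points alone, and its rule is not shown.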

Amino acid sequences for entries named in this document (tags omitted). A change or cut given only in a name is not applied to a line headed by its entry.
UniProt P31152, whole entry: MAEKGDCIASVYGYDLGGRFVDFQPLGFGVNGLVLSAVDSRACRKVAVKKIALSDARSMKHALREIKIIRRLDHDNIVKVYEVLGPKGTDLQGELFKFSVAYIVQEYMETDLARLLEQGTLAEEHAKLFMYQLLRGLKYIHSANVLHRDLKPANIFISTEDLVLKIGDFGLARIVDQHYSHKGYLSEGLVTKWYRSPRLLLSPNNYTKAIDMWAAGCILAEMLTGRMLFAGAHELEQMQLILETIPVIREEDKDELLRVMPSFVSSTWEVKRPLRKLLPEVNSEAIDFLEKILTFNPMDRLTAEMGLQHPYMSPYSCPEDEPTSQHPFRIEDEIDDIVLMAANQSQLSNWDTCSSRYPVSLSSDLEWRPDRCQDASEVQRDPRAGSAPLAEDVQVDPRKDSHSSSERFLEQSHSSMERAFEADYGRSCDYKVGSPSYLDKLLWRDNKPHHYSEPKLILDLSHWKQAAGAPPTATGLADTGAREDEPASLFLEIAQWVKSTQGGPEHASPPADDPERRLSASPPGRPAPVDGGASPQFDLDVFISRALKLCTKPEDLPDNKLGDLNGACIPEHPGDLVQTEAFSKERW
UniProt P49137, whole entry, looked up: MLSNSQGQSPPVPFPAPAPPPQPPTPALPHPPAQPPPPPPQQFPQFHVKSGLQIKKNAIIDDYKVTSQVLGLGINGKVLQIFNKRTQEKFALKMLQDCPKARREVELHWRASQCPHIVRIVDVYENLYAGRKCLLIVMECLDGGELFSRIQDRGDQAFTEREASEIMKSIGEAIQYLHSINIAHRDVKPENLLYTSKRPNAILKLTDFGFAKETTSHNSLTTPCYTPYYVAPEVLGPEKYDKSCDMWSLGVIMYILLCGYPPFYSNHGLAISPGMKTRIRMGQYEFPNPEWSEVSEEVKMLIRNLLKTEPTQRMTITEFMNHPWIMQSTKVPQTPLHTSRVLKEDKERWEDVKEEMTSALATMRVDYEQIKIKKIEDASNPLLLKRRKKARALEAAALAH
UniProt Q16288, whole entry, looked up: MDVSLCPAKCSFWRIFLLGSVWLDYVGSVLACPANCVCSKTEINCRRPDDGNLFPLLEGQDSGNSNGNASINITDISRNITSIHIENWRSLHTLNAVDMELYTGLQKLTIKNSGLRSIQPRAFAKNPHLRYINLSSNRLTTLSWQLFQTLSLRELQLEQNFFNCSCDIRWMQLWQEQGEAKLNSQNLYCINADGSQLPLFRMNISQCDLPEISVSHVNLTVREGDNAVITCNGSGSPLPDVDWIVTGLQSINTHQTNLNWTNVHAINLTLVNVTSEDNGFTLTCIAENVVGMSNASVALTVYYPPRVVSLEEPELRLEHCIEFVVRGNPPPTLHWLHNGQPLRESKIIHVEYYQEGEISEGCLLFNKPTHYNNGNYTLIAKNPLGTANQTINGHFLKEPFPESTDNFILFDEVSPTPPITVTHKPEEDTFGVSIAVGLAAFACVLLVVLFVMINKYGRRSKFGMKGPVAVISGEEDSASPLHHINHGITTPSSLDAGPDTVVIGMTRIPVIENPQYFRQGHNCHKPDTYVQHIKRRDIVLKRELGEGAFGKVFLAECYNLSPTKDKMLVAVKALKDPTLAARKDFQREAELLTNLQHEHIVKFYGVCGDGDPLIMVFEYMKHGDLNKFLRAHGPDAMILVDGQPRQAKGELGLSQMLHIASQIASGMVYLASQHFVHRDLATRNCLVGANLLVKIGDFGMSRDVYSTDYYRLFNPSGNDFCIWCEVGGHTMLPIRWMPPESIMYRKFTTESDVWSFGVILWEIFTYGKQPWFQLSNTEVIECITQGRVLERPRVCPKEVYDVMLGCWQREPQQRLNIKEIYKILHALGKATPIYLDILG
UniProt Q96KB5: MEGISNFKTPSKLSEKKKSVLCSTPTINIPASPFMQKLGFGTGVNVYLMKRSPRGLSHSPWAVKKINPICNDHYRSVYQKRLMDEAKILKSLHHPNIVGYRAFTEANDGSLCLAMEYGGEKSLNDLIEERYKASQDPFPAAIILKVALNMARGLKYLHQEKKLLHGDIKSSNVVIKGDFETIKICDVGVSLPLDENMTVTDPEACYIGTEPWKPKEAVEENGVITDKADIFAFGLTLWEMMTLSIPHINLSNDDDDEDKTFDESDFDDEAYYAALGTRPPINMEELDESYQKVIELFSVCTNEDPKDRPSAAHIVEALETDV
UniProt O15530: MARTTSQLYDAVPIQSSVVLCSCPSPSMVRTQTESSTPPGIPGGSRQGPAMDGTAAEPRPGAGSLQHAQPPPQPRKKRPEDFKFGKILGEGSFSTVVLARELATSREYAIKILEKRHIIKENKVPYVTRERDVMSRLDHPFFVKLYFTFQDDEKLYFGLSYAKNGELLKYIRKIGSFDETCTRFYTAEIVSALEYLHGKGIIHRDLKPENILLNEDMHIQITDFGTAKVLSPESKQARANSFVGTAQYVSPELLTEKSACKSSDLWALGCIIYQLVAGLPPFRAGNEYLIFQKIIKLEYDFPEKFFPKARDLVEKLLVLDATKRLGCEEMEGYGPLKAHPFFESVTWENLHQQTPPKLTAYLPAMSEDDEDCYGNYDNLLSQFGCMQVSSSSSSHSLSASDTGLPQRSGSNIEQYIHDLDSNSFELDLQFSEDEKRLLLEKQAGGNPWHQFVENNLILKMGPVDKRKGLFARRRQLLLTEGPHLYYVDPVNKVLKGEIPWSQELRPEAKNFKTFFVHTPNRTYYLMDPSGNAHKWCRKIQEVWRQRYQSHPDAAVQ
UniProt P42356, whole entry, looked up: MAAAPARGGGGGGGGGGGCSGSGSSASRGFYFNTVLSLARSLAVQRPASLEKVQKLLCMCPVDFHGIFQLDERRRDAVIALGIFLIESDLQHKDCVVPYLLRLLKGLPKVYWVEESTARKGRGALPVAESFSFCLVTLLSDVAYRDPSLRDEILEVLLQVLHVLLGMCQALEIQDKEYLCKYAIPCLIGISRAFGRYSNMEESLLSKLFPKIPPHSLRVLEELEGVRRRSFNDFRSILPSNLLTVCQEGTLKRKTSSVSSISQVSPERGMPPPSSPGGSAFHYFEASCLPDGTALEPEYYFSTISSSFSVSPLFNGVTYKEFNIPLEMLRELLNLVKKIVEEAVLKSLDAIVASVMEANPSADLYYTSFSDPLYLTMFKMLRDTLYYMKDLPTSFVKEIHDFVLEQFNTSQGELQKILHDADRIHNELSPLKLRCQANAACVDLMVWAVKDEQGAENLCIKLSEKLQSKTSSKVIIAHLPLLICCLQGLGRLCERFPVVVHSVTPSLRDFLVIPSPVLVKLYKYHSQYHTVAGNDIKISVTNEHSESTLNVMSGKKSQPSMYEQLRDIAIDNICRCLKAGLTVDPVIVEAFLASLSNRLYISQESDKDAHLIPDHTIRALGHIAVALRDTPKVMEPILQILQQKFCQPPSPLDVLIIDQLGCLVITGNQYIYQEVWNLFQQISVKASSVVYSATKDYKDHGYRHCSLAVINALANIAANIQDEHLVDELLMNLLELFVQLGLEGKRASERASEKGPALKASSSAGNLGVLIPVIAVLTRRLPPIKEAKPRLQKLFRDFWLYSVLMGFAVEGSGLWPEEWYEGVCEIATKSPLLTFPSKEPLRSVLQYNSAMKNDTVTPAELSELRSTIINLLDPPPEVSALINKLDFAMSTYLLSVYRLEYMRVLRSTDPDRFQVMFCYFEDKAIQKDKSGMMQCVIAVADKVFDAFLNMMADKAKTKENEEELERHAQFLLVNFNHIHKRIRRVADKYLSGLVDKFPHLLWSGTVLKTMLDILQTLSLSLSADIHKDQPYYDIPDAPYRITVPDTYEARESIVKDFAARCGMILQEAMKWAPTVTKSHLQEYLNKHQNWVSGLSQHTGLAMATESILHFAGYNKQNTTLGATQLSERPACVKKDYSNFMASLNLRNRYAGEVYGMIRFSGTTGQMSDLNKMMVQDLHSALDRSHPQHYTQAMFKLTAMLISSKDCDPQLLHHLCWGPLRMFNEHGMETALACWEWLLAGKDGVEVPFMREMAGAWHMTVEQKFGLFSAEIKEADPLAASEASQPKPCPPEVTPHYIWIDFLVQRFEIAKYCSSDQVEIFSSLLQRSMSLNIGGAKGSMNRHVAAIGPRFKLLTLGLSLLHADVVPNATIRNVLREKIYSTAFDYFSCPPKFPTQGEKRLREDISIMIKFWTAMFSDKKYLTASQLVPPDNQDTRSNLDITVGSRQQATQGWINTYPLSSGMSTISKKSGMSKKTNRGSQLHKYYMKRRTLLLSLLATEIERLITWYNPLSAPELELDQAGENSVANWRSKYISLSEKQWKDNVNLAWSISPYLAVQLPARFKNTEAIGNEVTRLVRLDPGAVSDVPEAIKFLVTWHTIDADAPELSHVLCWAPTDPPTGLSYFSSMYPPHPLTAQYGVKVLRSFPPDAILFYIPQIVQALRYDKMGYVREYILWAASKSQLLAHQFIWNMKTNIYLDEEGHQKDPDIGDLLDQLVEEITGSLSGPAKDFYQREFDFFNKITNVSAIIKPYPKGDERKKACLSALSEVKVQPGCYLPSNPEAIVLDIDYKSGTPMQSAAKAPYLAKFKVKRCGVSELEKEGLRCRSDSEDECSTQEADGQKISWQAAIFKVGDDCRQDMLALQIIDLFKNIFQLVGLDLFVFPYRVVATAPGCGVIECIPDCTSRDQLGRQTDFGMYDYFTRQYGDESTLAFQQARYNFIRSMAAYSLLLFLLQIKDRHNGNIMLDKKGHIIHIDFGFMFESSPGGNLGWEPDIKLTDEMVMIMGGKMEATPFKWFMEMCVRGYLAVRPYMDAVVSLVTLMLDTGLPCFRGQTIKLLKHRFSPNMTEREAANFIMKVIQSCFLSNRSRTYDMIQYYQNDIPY
UniProt Q13131: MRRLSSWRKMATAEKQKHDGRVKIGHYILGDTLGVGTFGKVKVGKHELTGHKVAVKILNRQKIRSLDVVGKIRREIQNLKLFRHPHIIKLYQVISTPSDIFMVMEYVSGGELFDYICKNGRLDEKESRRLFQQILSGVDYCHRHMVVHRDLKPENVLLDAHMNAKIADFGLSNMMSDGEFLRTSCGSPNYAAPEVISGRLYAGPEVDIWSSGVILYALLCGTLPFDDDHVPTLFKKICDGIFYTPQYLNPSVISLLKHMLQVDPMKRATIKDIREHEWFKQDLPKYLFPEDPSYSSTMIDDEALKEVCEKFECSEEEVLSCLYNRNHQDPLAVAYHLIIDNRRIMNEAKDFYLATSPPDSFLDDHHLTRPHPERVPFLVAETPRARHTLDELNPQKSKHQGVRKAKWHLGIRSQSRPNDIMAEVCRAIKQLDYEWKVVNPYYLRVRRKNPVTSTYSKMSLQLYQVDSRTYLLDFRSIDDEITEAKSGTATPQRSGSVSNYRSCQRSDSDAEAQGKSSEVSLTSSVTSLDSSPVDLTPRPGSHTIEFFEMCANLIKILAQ
UniProt Q05397, whole entry, looked up: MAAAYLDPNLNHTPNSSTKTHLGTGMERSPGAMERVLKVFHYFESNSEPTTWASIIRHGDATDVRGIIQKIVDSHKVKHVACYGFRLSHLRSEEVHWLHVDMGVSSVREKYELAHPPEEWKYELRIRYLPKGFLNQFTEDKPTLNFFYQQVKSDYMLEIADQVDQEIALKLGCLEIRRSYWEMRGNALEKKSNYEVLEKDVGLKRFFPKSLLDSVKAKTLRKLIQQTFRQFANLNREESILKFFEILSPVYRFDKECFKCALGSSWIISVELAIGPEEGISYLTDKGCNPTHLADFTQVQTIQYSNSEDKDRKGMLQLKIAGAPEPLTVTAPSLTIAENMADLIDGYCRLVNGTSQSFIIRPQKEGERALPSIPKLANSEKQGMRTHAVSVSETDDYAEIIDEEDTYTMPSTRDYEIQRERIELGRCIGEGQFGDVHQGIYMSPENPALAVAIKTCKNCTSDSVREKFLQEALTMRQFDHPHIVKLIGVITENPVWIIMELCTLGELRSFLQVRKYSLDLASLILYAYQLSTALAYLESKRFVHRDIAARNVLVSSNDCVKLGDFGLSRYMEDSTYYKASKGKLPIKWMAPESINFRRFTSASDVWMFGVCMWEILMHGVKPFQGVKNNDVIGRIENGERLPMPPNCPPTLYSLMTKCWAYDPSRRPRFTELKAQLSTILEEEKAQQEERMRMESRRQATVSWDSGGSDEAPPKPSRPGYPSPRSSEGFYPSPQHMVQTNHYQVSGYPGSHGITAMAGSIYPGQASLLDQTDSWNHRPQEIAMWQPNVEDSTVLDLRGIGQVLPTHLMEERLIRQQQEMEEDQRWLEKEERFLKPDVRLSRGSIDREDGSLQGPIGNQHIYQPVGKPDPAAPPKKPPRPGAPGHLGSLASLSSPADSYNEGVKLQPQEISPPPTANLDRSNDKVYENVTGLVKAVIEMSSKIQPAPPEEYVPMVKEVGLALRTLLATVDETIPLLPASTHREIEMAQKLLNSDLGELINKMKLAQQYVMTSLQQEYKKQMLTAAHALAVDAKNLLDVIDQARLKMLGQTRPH

Legend:
Experiment in all cases: kinase-Nluc reporter destabilization hit call (1 = scored as downregulated) (binary); higher = compound decreases kinase abundance
Conditions in all cases: K562, 2-18 h
MAPK1 = MAPK1 (UniProt P28482)
MAPK4 = MAPK4 (UniProt P31152)
MAPKAPK2 = MAPKAPK2 (UniProt P49137)
MKNK1 = MKNK1 (UniProt Q9BUB5)
NTRK2 = NTRK2 (UniProt Q16620)
NTRK3 = NTRK3 (UniProt Q16288)
PAK4 = PAK4 (UniProt O96013)
PBK = PBK (UniProt Q96KB5)
PDGFRB = PDGFRB (UniProt P09619)
PDK1 = PDK1 (UniProt Q15118)
PDPK1 = PDPK1 (UniProt O15530)
PIK4CA = PIK4CA (UniProt P42356)
PIK4CB = PIK4CB (UniProt Q9UBF8)
PLK1 = PLK1 (UniProt P53350)
PRKAA1 = PRKAA1 (UniProt Q13131)
PRKCA = PRKCA (UniProt P17252)
PTK2 = PTK2 (UniProt Q05397)
PTK2B = PTK2B (UniProt Q14289)
RAF1 = RAF1 (UniProt P04049)
[1] = molecular target: RAF1_S257L (clone: RAF1_mut) (UniProt P04049)

Measured: kinase-Nluc reporter destabilization hit call

CN(C)C(=O)c1cc2cnc(Nc3ccc(N4CCNCC4)cn3)nc2n1C1CCCC1 [Ribociclib hydrochloride]
inactive: MAPK1; 2.5 µM 0 | MAPK4; 2.5 µM 0 | MAPKAPK2; 2.5 µM 0 | MKNK1; 2.5 µM 0 | NTRK2; 2.5 µM 0 | NTRK3; 2.5 µM 0 | PAK4; 2.5 µM 0 | PBK; 2.5 µM 0 | PDGFRB; 2.5 µM 0 | PDK1; 2.5 µM 0 | PDPK1; 2.5 µM 0 | PIK4CA; 2.5 µM 0 | PIK4CB; 2.5 µM 0 | PLK1; 2.5 µM 0 | PRKAA1; 2.5 µM 0 | PRKCA; 2.5 µM 0 | PTK2; 2.5 µM 0 | PTK2B; 2.5 µM 0 | RAF1; 2.5 µM 0 | [1]; 2.5 µM 0

N#CCC1(n2cc(-c3ncnc4[nH]ccc34)cn2)CN(C2CCN(C(=O)c3ccnc(C(F)(F)F)c3F)CC2)C1 [Itacitinib adipate]
inactive: MAPK1; 10 µM 0 | MAPK4; 10 µM 0 | MAPKAPK2; 10 µM 0 | MKNK1; 10 µM 0 | NTRK2; 10 µM 0 | NTRK3; 10 µM 0 | PAK4; 10 µM 0 | PBK; 10 µM 0 | PDGFRB; 10 µM 0 | PDK1; 10 µM 0 | PDPK1; 10 µM 0 | PIK4CA; 10 µM 0 | PIK4CB; 10 µM 0 | PLK1; 10 µM 0 | PRKAA1; 10 µM 0 | PRKCA; 10 µM 0 | PTK2; 10 µM 0 | PTK2B; 10 µM 0 | RAF1; 10 µM 0 | [1]; 10 µM 0

Cn1cc(-c2cnc3ccc4ccc(CS(=O)(=O)NCc5ccccn5)cc4c(=O)c3c2)cn1
inactive: MAPK1; 10 µM 0 | MAPK4; 10 µM 0 | MAPKAPK2; 10 µM 0 | MKNK1; 10 µM 0 | NTRK2; 10 µM 0 | NTRK3; 10 µM 0 | PAK4; 10 µM 0 | PBK; 10 µM 0 | PDGFRB; 10 µM 0 | PDK1; 10 µM 0 | PDPK1; 10 µM 0 | PIK4CA; 10 µM 0 | PIK4CB; 10 µM 0 | PLK1; 10 µM 0 | PRKAA1; 10 µM 0 | PRKCA; 10 µM 0 | PTK2; 10 µM 0 | PTK2B; 10 µM 0 | RAF1; 10 µM 0 | [1]; 10 µM 0

COc1ncc(F)cc1CNc1ccc(Cc2c[nH]c3ncc(C)cc23)c(F)n1
inactive: MAPK1; 10 µM 0 | MAPK4; 10 µM 0 | MAPKAPK2; 10 µM 0 | MKNK1; 10 µM 0 | NTRK2; 10 µM 0 | NTRK3; 10 µM 0 | PAK4; 10 µM 0 | PBK; 10 µM 0 | PDGFRB; 10 µM 0 | PDK1; 10 µM 0 | PDPK1; 10 µM 0 | PIK4CA; 10 µM 0 | PIK4CB; 10 µM 0 | PLK1; 10 µM 0 | PRKAA1; 10 µM 0 | PRKCA; 10 µM 0 | PTK2; 10 µM 0 | PTK2B; 10 µM 0 | RAF1; 10 µM 0 | [1]; 10 µM 0

FC(F)(F)c1ccc(CNc2ccc(Cc3c[nH]c4ncc(Cl)cc34)cn2)cn1 [Pexidartinib]
inactive: MAPK1; 10 µM 0 | MAPK4; 10 µM 0 | MAPKAPK2; 10 µM 0 | MKNK1; 10 µM 0 | NTRK2; 10 µM 0 | NTRK3; 10 µM 0 | PAK4; 10 µM 0 | PBK; 10 µM 0 | PDGFRB; 10 µM 0 | PDK1; 10 µM 0 | PDPK1; 10 µM 0 | PIK4CA; 10 µM 0 | PIK4CB; 10 µM 0 | PLK1; 10 µM 0 | PRKAA1; 10 µM 0 | PRKCA; 10 µM 0 | PTK2; 10 µM 0 | PTK2B; 10 µM 0 | RAF1; 10 µM 0 | [1]; 10 µM 0

N#CCC1(n2cc(-c3ncnc4[nH]ccc34)cn2)CN(C2CCN(C(=O)c3ccnc(C(F)(F)F)c3F)CC2)C1 [Itacitinib]
inactive: MAPK1; 10 µM 0 | MAPK4; 10 µM 0 | MAPKAPK2; 10 µM 0 | MKNK1; 10 µM 0 | NTRK2; 10 µM 0 | NTRK3; 10 µM 0 | PAK4; 10 µM 0 | PBK; 10 µM 0 | PDGFRB; 10 µM 0 | PDK1; 10 µM 0 | PDPK1; 10 µM 0 | PIK4CA; 10 µM 0 | PIK4CB; 10 µM 0 | PLK1; 10 µM 0 | PRKAA1; 10 µM 0 | PRKCA; 10 µM 0 | PTK2; 10 µM 0 | PTK2B; 10 µM 0 | RAF1; 10 µM 0 | [1]; 10 µM 0

COc1cc2c(-c3cnn4cc(N5CCC(N6CCN(C)CC6)CC5)cnc34)ccnc2cc1F
inactive: MAPK1; 10 µM 0 | MAPK4; 10 µM 0 | MAPKAPK2; 10 µM 0 | MKNK1; 10 µM 0 | NTRK2; 10 µM 0 | NTRK3; 10 µM 0 | PAK4; 10 µM 0 | PBK; 10 µM 0 | PDGFRB; 10 µM 0 | PDK1; 10 µM 0 | PDPK1; 10 µM 0 | PIK4CA; 10 µM 0 | PIK4CB; 10 µM 0 | PLK1; 10 µM 0 | PRKAA1; 10 µM 0 | PRKCA; 10 µM 0 | PTK2; 10 µM 0 | PTK2B; 10 µM 0 | RAF1; 10 µM 0 | [1]; 10 µM 0

Two records drawn at random from those above:
N#CCC1(n2cc(-c3ncnc4[nH]ccc34)cn2)CN(C2CCN(C(=O)c3ccnc(C(F)(F)F)c3F)CC2)C1 [Itacitinib adipate]
inactive: MAPK1; 10 µM 0 | MAPK4; 10 µM 0 | MAPKAPK2; 10 µM 0 | MKNK1; 10 µM 0 | NTRK2; 10 µM 0 | NTRK3; 10 µM 0 | PAK4; 10 µM 0 | PBK; 10 µM 0 | PDGFRB; 10 µM 0 | PDK1; 10 µM 0 | PDPK1; 10 µM 0 | PIK4CA; 10 µM 0 | PIK4CB; 10 µM 0 | PLK1; 10 µM 0 | PRKAA1; 10 µM 0 | PRKCA; 10 µM 0 | PTK2; 10 µM 0 | PTK2B; 10 µM 0 | RAF1; 10 µM 0 | [1]; 10 µM 0

COc1ncc(F)cc1CNc1ccc(Cc2c[nH]c3ncc(C)cc23)c(F)n1
inactive: MAPK1; 10 µM 0 | MAPK4; 10 µM 0 | MAPKAPK2; 10 µM 0 | MKNK1; 10 µM 0 | NTRK2; 10 µM 0 | NTRK3; 10 µM 0 | PAK4; 10 µM 0 | PBK; 10 µM 0 | PDGFRB; 10 µM 0 | PDK1; 10 µM 0 | PDPK1; 10 µM 0 | PIK4CA; 10 µM 0 | PIK4CB; 10 µM 0 | PLK1; 10 µM 0 | PRKAA1; 10 µM 0 | PRKCA; 10 µM 0 | PTK2; 10 µM 0 | PTK2B; 10 µM 0 | RAF1; 10 µM 0 | [1]; 10 µM 0

Carrying on:

COc1ccc2c(c1)C(c1ccc(F)cc1)=C(CN1CCCC1)CO2
inactive: MAPK1; 10 µM 0 | MAPK4; 10 µM 0 | MAPKAPK2; 10 µM 0 | MKNK1; 10 µM 0 | NTRK2; 10 µM 0 | NTRK3; 10 µM 0 | PAK4; 10 µM 0 | PBK; 10 µM 0 | PDGFRB; 10 µM 0 | PDK1; 10 µM 0 | PDPK1; 10 µM 0 | PIK4CA; 10 µM 0 | PIK4CB; 10 µM 0 | PLK1; 10 µM 0 | PRKAA1; 10 µM 0 | PRKCA; 10 µM 0 | PTK2; 10 µM 0 | PTK2B; 10 µM 0 | RAF1; 10 µM 0 | [1]; 10 µM 0

Cc1[nH]c(/C=C2\C(=O)Nc3ccc(F)cc32)c(C)c1C(=O)NCCN1CCCC1 [Toceranib (phosphate)]
inactive: MAPK1; 2 µM 0 | MAPK4; 2 µM 0 | MAPKAPK2; 2 µM 0 | MKNK1; 2 µM 0 | NTRK2; 2 µM 0 | NTRK3; 2 µM 0 | PAK4; 2 µM 0 | PBK; 2 µM 0 | PDGFRB; 2 µM 0 | PDK1; 2 µM 0 | PDPK1; 2 µM 0 | PIK4CA; 2 µM 0 | PIK4CB; 2 µM 0 | PLK1; 2 µM 0 | PRKAA1; 2 µM 0 | PRKCA; 2 µM 0 | PTK2; 2 µM 0 | PTK2B; 2 µM 0 | RAF1; 2 µM 0 | [1]; 2 µM 0
